# Data taken from the supplement of paper PMC8728848.
# The other results are listed elsewhere or left out.
# B1: Drgal1 (Danio rerio) (protein)
# chain: MAGVLIQNMSFKVGQTLTITGVPKPDSTNFAINIGHSPEDIALHMNPRFDAHGDQCTIVCNSFQSGSWCEEHRDDNFPFIQDKEFQIKITFTNEEFLVTLPDGSEIHFPNRQGSEKYKYMYFEGEVRIQGVEIK
# Key:
# Experiment in all cases: glycan array binding signal (z-score within array); higher = stronger binding
# Conditions in all cases: glycan notation: IUPAC condensed, linker removed
# [1] = target: Neu5Ac(a2-3)Gal(b1-4)GlcNAc(b1-3)GalNAc
# Method in brief: (§1)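 Glycan array data came from 3228 arrays in the Consortium for Functional Glycomics database, and only arrays with an available protein sequence were kept. Glycan names were put into IUPAC-condensed notation, and columns mapping to the same glycan were averaged. The binding signal is a within-array Z-score, averaged across arrays of one protein sequence run at different concentrations or buffers and across linkers. A negative Z-score can be read as non-binding.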
# [2] = target: Neu5Ac(a2-3)Gal(b1-4)GlcNAc(b1-3)[Neu5Ac(a2-3)Gal(b1-4)GlcNAc(b1-6)]GalNAc
# Method in brief: as §1
# [3] = target: Neu5Ac(a2-3)Gal(b1-4)GlcNAc(b1-6)GalNAc
# Method in brief: as §1
# [4] = target: Neu5Ac(a2-3)Gal(b1-4)GlcNAc(b1-6)[Gal(b1-3)]GalNAc
# Method in brief: as §1
# [5] = target: Neu5Ac(a2-3)Gal(b1-4)GlcNAc(b1-6)[Neu5Ac(a2-3)Gal(b1-3)]GalNAc
# Method in brief: as §1
# [6] = target: Neu5Ac(a2-3)Gal(b1-4)GlcNAc6S
# Method in brief: as §1
# [7] = target: Neu5Ac(a2-3)Gal(b1-4)[Fuc(a1-3)]GlcNAc
# Method in brief: as §1
# [8] = target: Neu5Ac(a2-3)Gal(b1-4)[Fuc(a1-3)]GlcNAc(b1-2)Man
# Method in brief: as §1
# [9] = target: Neu5Ac(a2-3)Gal(b1-4)[Fuc(a1-3)]GlcNAc(b1-3)Gal
# Method in brief: as §1
# [10] = target: Neu5Ac(a2-3)Gal(b1-4)[Fuc(a1-3)]GlcNAc(b1-3)Gal(b1-4)GlcNAc
# Method in brief: as §1
# [11] = target: Neu5Ac(a2-3)Gal(b1-4)[Fuc(a1-3)]GlcNAc(b1-3)Gal(b1-4)[Fuc(a1-3)]GlcNAc(b1-3)Gal(b1-4)[Fuc(a1-3)]GlcNAc
# Method in brief: as §1
# [12] = target: Neu5Ac(a2-3)Gal(b1-4)[Fuc(a1-3)]GlcNAc(b1-3)GalNAc
# Method in brief: as §1
# [13] = target: Neu5Ac(a2-3)Gal(b1-4)[Fuc(a1-3)]GlcNAc(b1-6)[Gal(b1-3)]GalNAc
# Method in brief: as §1
# [14] = target: Neu5Ac(a2-3)Gal(b1-4)[Fuc(a1-3)]GlcNAc(b1-6)[Neu5Ac(a2-3)Gal(b1-3)]GalNAc
# Method in brief: as §1
# [15] = target: Neu5Ac(a2-3)Gal(b1-4)[Fuc(a1-3)]GlcNAc6S
# Method in brief: as §1
# [16] = target: Neu5Ac(a2-3)Gal6S(b1-4)GlcNAc
# Method in brief: as §1
# [17] = target: Neu5Ac(a2-3)Gal6S(b1-4)[Fuc(a1-3)]GlcNAc
# Method in brief: as §1
# Neu5Ac(a2-3)GalNAc = target: Neu5Ac(a2-3)GalNAc
# Method in brief: as §1
# [18] = target: Neu5Ac(a2-3)GalNAc(b1-4)GlcNAc
# Method in brief: as §1
# [19] = target: Neu5Ac(a2-3)[GalNAc(b1-4)]Gal(b1-4)Glc
# Method in brief: as §1
# [20] = target: Neu5Ac(a2-3)[GalNAc(b1-4)]Gal(b1-4)GlcNAc
# Method in brief: as §1
# [21] = target: Neu5Ac(a2-3)[GalNAc(b1-4)]Gal(b1-4)GlcNAc(b1-3)GalNAc
# Method in brief: as §1
# [22] = target: Neu5Ac(a2-3)[Neu5Ac(a2-6)]GalNAc
# Method in brief: as §1
# Neu5Ac(a2-6)Gal = target: Neu5Ac(a2-6)Gal
# Method in brief: as §1
# [23] = target: Neu5Ac(a2-6)Gal(b1-3)GlcNAc(b1-3)[Gal(b1-4)GlcNAc(b1-6)]Gal(b1-4)Glc
# Method in brief: as §1
# Neu5Ac(a2-6)Gal(b1-4)Glc = target: Neu5Ac(a2-6)Gal(b1-4)Glc
# Method in brief: as §1
# [24] = target: Neu5Ac(a2-6)Gal(b1-4)GlcNAc
# Method in brief: as §1
# [25] = target: Neu5Ac(a2-6)Gal(b1-4)GlcNAc(b1-2)Man
# Method in brief: as §1
# [26] = target: Neu5Ac(a2-6)Gal(b1-4)GlcNAc(b1-2)Man(a1-3)Man(b1-4)GlcNAc(b1-4)GlcNAc
# Method in brief: as §1
# [27] = target: Neu5Ac(a2-6)Gal(b1-4)GlcNAc(b1-2)Man(a1-3)[Gal(b1-4)GlcNAc(b1-2)Man(a1-6)]Man(b1-4)GlcNAc(b1-4)GlcNAc
# Method in brief: as §1
# [28] = target: Neu5Ac(a2-6)Gal(b1-4)GlcNAc(b1-2)Man(a1-3)[GlcNAc(b1-2)Man(a1-6)]Man(b1-4)GlcNAc(b1-4)GlcNAc
# Method in brief: as §1
# [29] = target: Neu5Ac(a2-6)Gal(b1-4)GlcNAc(b1-2)Man(a1-3)[GlcNAc(b1-4)][Neu5Ac(a2-6)Gal(b1-4)GlcNAc(b1-2)Man(a1-6)]Man(b1-4)GlcNAc(b1-4)GlcNAc
# Method in brief: as §1
# [30] = target: Neu5Ac(a2-6)Gal(b1-4)GlcNAc(b1-2)Man(a1-3)[Man(a1-6)]Man(b1-4)GlcNAc(b1-4)GlcNAc
# Method in brief: as §1
# [31] = target: Neu5Ac(a2-6)Gal(b1-4)GlcNAc(b1-2)Man(a1-3)[Neu5Ac(a2-3)Gal(b1-4)GlcNAc(b1-2)Man(a1-6)]Man(b1-4)GlcNAc(b1-4)GlcNAc
# Method in brief: as §1
# [32] = target: Neu5Ac(a2-6)Gal(b1-4)GlcNAc(b1-2)Man(a1-3)[Neu5Ac(a2-6)Gal(b1-4)GlcNAc(b1-2)Man(a1-6)]Man(b1-4)GlcNAc(b1-4)GlcNAc
# Method in brief: as §1
# [33] = target: Neu5Ac(a2-6)Gal(b1-4)GlcNAc(b1-2)Man(a1-3)[Neu5Ac(a2-6)Gal(b1-4)GlcNAc(b1-2)Man(a1-6)]Man(b1-4)GlcNAc(b1-4)[Fuc(a1-6)]GlcNAc
# Method in brief: as §1
# [34] = target: Neu5Ac(a2-6)Gal(b1-4)GlcNAc(b1-2)Man(a1-6)Man(b1-4)GlcNAc(b1-4)GlcNAc
# Method in brief: as §1
# [35] = target: Neu5Ac(a2-6)Gal(b1-4)GlcNAc(b1-2)Man(a1-6)[Gal(b1-4)GlcNAc(b1-2)Man(a1-3)]Man(b1-4)GlcNAc(b1-4)GlcNAc
# Method in brief: as §1
# [36] = target: Neu5Ac(a2-6)Gal(b1-4)GlcNAc(b1-2)Man(a1-6)[GlcNAc(b1-2)Man(a1-3)]Man(b1-4)GlcNAc(b1-4)GlcNAc
# Method in brief: as §1
# [37] = target: Neu5Ac(a2-6)Gal(b1-4)GlcNAc(b1-2)Man(a1-6)[Man(a1-3)]Man(b1-4)GlcNAc(b1-4)GlcNAc
# Method in brief: as §1
# [38] = target: Neu5Ac(a2-6)Gal(b1-4)GlcNAc(b1-2)[Neu5Ac(a2-6)Gal(b1-4)GlcNAc(b1-4)]Man(a1-3)[GlcNAc(b1-4)][Neu5Ac(a2-6)Gal(b1-4)GlcNAc(b1-2)[Neu5Ac(a2-6)Gal(b1-4)GlcNAc(b1-6)]Man(a1-6)]Man(b1-4)GlcNAc(b1-4)GlcNAc
# Method in brief: as §1
# [39] = target: Neu5Ac(a2-6)Gal(b1-4)GlcNAc(b1-2)[Neu5Ac(a2-6)Gal(b1-4)GlcNAc(b1-4)]Man(a1-3)[GlcNAc(b1-4)][Neu5Ac(a2-6)Gal(b1-4)GlcNAc(b1-4)Man(a1-6)]Man(b1-4)GlcNAc(b1-4)GlcNAc
# Method in brief: as §1
# [40] = target: Neu5Ac(a2-6)Gal(b1-4)GlcNAc(b1-2)[Neu5Ac(a2-6)Gal(b1-4)GlcNAc(b1-6)]Man(a1-6)[Neu5Ac(a2-6)Gal(b1-4)GlcNAc(b1-2)Man(a1-3)][GlcNAc(b1-4)]Man(b1-4)GlcNAc(b1-4)GlcNAc
# Method in brief: as §1
# [41] = target: Neu5Ac(a2-6)Gal(b1-4)GlcNAc(b1-3)Gal(b1-3)GlcNAc
# Method in brief: as §1
# [42] = target: Neu5Ac(a2-6)Gal(b1-4)GlcNAc(b1-3)Gal(b1-4)GlcNAc
# Method in brief: as §1
binder,measurement,setting,value
B1,glycan array binding signal (z-score),[1],0.164
same,glycan array binding signal (z-score),[2],0.152
same,glycan array binding signal (z-score),[3],-0.099
same,glycan array binding signal (z-score),[4],0.539
same,glycan array binding signal (z-score),[5],-0.825
same,glycan array binding signal (z-score),[6],-0.362
same,glycan array binding signal (z-score),[7],-0.689
same,glycan array binding signal (z-score),[8],-0.502
same,glycan array binding signal (z-score),[9],-0.059
same,glycan array binding signal (z-score),[10],0.135
same,glycan array binding signal (z-score),[11],-0.239
same,glycan array binding signal (z-score),[12],5.78
same,glycan array binding signal (z-score),[13],0.126
same,glycan array binding signal (z-score),[14],-0.233
same,glycan array binding signal (z-score),[15],-0.162
same,glycan array binding signal (z-score),[16],-0.469
same,glycan array binding signal (z-score),[17],-0.766
same,glycan array binding signal (z-score),Neu5Ac(a2-3)GalNAc,-0.59
same,glycan array binding signal (z-score),[18],-0.657
same,glycan array binding signal (z-score),[19],-0.429
same,glycan array binding signal (z-score),[20],-0.515
same,glycan array binding signal (z-score),[21],-0.314
same,glycan array binding signal (z-score),[22],-0.569
same,glycan array binding signal (z-score),Neu5Ac(a2-6)Gal,-0.108
same,glycan array binding signal (z-score),[23],-0.166
same,glycan array binding signal (z-score),Neu5Ac(a2-6)Gal(b1-4)Glc,-0.154
same,glycan array binding signal (z-score),[24],-0.081
same,glycan array binding signal (z-score),[25],-0.396
same,glycan array binding signal (z-score),[26],0.535
same,glycan array binding signal (z-score),[27],-0.382
same,glycan array binding signal (z-score),[28],-0.699
same,glycan array binding signal (z-score),[29],-0.418
same,glycan array binding signal (z-score),[30],-0.049
same,glycan array binding signal (z-score),[31],0.079
same,glycan array binding signal (z-score),[32],0.521
same,glycan array binding signal (z-score),[33],0.431
same,glycan array binding signal (z-score),[34],0.046
same,glycan array binding signal (z-score),[35],-0.271
same,glycan array binding signal (z-score),[36],-0.248
same,glycan array binding signal (z-score),[37],-0.533
same,glycan array binding signal (z-score),[38],-0.371
same,glycan array binding signal (z-score),[39],-0.106
same,glycan array binding signal (z-score),[40],-0.669
same,glycan array binding signal (z-score),[41],0.001
same,glycan array binding signal (z-score),[42],-0.318

# For reference, part of the list above:
binder,measurement,setting,value
B1,glycan array binding signal (z-score),[33],0.431
same,glycan array binding signal (z-score),[34],0.046
